Assay results published in article PMC7819943, “Rice protein-binding microarrays: a tool to detect cis-acting elements near promoter regions in rice”.
This is one part of the list.

The sequences below were run against T1, OsSMF1 (Oryza sativa, UniProt Q6ZLB0 1-436) (assay: protein-binding microarray (RPBM); PBS, 2% BSA, 51.3 ng/ul salmon testes DNA, 50 uM zinc acetate, 200 nM TF, 25 C, 1 h; high values mean tight binding). Details: protein: recombinant; tags: N-terminal polyhistidine and DsRed monomer fusion (pET32a); chain copies: 2; label: CyDye5-dUTP incorporated in the synthesized complementary strand; 3' TTTTT single-stranded linker to array surface; dsDNA, one strand shown.
T1 sequence: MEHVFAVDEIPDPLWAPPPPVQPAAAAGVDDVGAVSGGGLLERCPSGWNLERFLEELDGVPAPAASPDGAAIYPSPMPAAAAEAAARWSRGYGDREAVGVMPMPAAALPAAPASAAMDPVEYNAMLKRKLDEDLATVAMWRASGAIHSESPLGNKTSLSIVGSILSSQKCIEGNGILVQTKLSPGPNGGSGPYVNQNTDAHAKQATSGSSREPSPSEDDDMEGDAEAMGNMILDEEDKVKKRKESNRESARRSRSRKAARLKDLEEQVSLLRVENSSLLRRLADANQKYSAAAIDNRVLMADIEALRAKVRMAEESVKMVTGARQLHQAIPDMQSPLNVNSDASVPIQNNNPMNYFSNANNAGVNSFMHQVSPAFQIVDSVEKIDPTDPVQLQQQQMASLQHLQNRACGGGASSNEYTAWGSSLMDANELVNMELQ
Method in brief: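 For the binding signal, per-feature fluorescence intensity was read in arbitrary units on an Axon 4000B scanner. Before scanning, a 2% BSA-blocked custom Agilent array made double-stranded with Cy5-dUTP was washed after 1 h at 25 °C with 200 nM protein and 50 µM zinc acetate. The proteins were Ni–NTA-purified transcription factors with N-terminal polyhistidine and DsRed fusions, expressed in E. coli BL21-CodonPlus.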

Sequence | binding signal
AACTGAATCCCATCCACTCCTTTATCATCATCACCATTTCCGGAGTCACCTAGTGCAG | 3370 fluorescence intensity (a.u.)
TGACGGAAAACGTGACGGCGGTGGCATGTTTCTAATTTTGCGGAGTCACCTAGTGCAG | 3160 fluorescence intensity (a.u.)
CTCTTAGCAATGCTGACTGGTCCGATCAAAGTCAACGGTTCGGAGTCACCTAGTGCAG | 4660 fluorescence intensity (a.u.)
ATTCTGTCCACGTGTTAGGATCCGAGGGCAACCAGCGAATCGGAGTCACCTAGTGCAG | 5130 fluorescence intensity (a.u.)
CCTTACTATGTGTGTCATCCAACATCTCTATGATAAATTTCGGAGTCACCTAGTGCAG | 4660 fluorescence intensity (a.u.)
TCGTCTGCTGCTCCGCGAAGAAGGGCCAGCTCAGCATCGGCGGAGTCACCTAGTGCAG | 10500 fluorescence intensity (a.u.)
GGCTAAATGCTGAGGTGGAGAAGAGAAGAGAGGAGAAGCGCGGAGTCACCTAGTGCAG | 3480 fluorescence intensity (a.u.)
TGCTCGTGCCGCGCCACCGTGTTCCTCTCGGACCACGTGTCGGAGTCACCTAGTGCAG | 5480 fluorescence intensity (a.u.)
TAGATGCAGATAATGAAGATCTGTCATCATCTAGATTACCCGGAGTCACCTAGTGCAG | 4420 fluorescence intensity (a.u.)
CTGTTGCTTACTTGCGTGTCATCCAGAGTCATAGACGACTCGGAGTCACCTAGTGCAG | 6720 fluorescence intensity (a.u.)
GGTGTACCCCACGTGTTAGGTGACGTGACGTATCGGTTTTCGGAGTCACCTAGTGCAG | 13000 fluorescence intensity (a.u.)
AGACCAGTGGAAACTAGCATAACAATCATGTCACCCAATGCGGAGTCACCTAGTGCAG | 3390 fluorescence intensity (a.u.)
GCCGAGCGGCCGAATTCCGGTGGCTTCGACTTCGATCGGGCGGAGTCACCTAGTGCAG | 3290 fluorescence intensity (a.u.)
GGAGAAGTTCCAACGCATCGATGACTGTTGATGGTCTTTTCGGAGTCACCTAGTGCAG | 3170 fluorescence intensity (a.u.)
TGGGATAGGAATGGGGAATTGAGGAAAGAACTCCCTTCTTCGGAGTCACCTAGTGCAG | 3610 fluorescence intensity (a.u.)
TATGGGTTTGCAGCTTTCACAGTGCAGCCACGGGACGTGGCGGAGTCACCTAGTGCAG | 5200 fluorescence intensity (a.u.)
CTGACCTTAGACACCTCAGCGCCACGTCAATTGGCGCTGACGGAGTCACCTAGTGCAG | 10900 fluorescence intensity (a.u.)
CACCGTTGGCGCACAGGTGTCACCGCCTTGGCCGACCACGCGGAGTCACCTAGTGCAG | 4580 fluorescence intensity (a.u.)
ACAAACTTATCACTGAGCTCACAAGTCTAATAATTGCTAACGGAGTCACCTAGTGCAG | 3260 fluorescence intensity (a.u.)
CATCCCTGGTGCTCTTGGTCTCTTGGCAGCTGTGGAAGGACGGAGTCACCTAGTGCAG | 43000 fluorescence intensity (a.u.)
GTCAAGAAGTTAATGGCGTCATACATTAAAATGCGGAGGGCGGAGTCACCTAGTGCAG | 4220 fluorescence intensity (a.u.)

Sequence | binding signal
GTGACCGGAGACGCTATTCGAGTTATTACTACTACCCGGTCGGAGTCACCTAGTGCAG | 11200 fluorescence intensity (a.u.)
CTTCAGAGGATGCTGCTAAGCGCGTGGGACTTGATCTCAACGGAGTCACCTAGTGCAG | 3380 fluorescence intensity (a.u.)
GACAGATGTGCTGAGTGCTGACGTGGTTAAACTAACCTCGCGGAGTCACCTAGTGCAG | 16100 fluorescence intensity (a.u.)
ACATAGGAAGCAACCTAACTGACGCGTGACTTAGGTCCTGCGGAGTCACCTAGTGCAG | 4590 fluorescence intensity (a.u.)
CGGCCCATCCCATCTCCAAGTCCAACGCAGCAGCTCGCCCCGGAGTCACCTAGTGCAG | 4910 fluorescence intensity (a.u.)
TTCATGACAAGTCCCTGTTGGCTGTTGCAATCATTGTAGTCGGAGTCACCTAGTGCAG | 3590 fluorescence intensity (a.u.)
TTAGAAAATTGACTCTGACTTGGCAGCATAATTGAGACTACGGAGTCACCTAGTGCAG | 5900 fluorescence intensity (a.u.)
TCATCGTCTCCGACGCCGACGAACTCCCACTCACTAGTAGCGGAGTCACCTAGTGCAG | 3450 fluorescence intensity (a.u.)
TTCTTGTGGTCTACTGGCCAAAATTTTGACTCCTTCAGTTCGGAGTCACCTAGTGCAG | 3270 fluorescence intensity (a.u.)
CTATTTAGCTCATTGACAAATCCGATGTGGCAGTTTTATCCGGAGTCACCTAGTGCAG | 4950 fluorescence intensity (a.u.)
GCCGCCGGTAGAATCCATGGTGCGGATTCGCGCCAGCGTGCGGAGTCACCTAGTGCAG | 13700 fluorescence intensity (a.u.)
GGATTTAAATATCTGACATCACTACAAATTTTACGCCTCTCGGAGTCACCTAGTGCAG | 8080 fluorescence intensity (a.u.)
TTACCAAAATTTAGTCGCACATGAGTCGGACAGTTGGAACCGGAGTCACCTAGTGCAG | 3570 fluorescence intensity (a.u.)
AGTGTGCGTGTGTCGTGAGCACCGGCATTTCAGCCGTATTCGGAGTCACCTAGTGCAG | 3350 fluorescence intensity (a.u.)
TTCCTCTCCCGACCCTGACGTGGTTCACTTTGAGTATCGCCGGAGTCACCTAGTGCAG | 6090 fluorescence intensity (a.u.)
AGGAATGGATCCGAGAGAAGGAATCCTAGTCATGTGTTTGCGGAGTCACCTAGTGCAG | 6740 fluorescence intensity (a.u.)
TCCTGCTGCTGCGGTCGCTGTCAGCTCGTCCTCATCCTCCCGGAGTCACCTAGTGCAG | 3590 fluorescence intensity (a.u.)
GCCGGTCTTTCCGTCACCTCGGTACGTGTTCAATATGTTGCGGAGTCACCTAGTGCAG | 4530 fluorescence intensity (a.u.)
GCTTCCCCACAGGACACGTCACCCTCCCTCCTGCCCCTACCGGAGTCACCTAGTGCAG | 38200 fluorescence intensity (a.u.)
TTCTATTTTCAATTCCTTTGATGACTAGGCTACCACGTCACGGAGTCACCTAGTGCAG | 11300 fluorescence intensity (a.u.)
GAGAGGATGACACGTGGGCCCCGCATGTCAAGGGTCAAACCGGAGTCACCTAGTGCAG | 9500 fluorescence intensity (a.u.)

An excerpt of these results, with tabs.
Sequence	binding signal
CTTCAGAGGATGCTGCTAAGCGCGTGGGACTTGATCTCAACGGAGTCACCTAGTGCAG	3380 fluorescence intensity (a.u.)
GGATTTAAATATCTGACATCACTACAAATTTTACGCCTCTCGGAGTCACCTAGTGCAG	8080 fluorescence intensity (a.u.)
